Experimental data taken from paper PMC12823906.
No constants are given. Whether binding was seen depends on the method and setting. Some entries that bind do so weakly or less than the wild type.

Chains of the proteins cited; added tags and fusions are not shown.
UniProt Q04542: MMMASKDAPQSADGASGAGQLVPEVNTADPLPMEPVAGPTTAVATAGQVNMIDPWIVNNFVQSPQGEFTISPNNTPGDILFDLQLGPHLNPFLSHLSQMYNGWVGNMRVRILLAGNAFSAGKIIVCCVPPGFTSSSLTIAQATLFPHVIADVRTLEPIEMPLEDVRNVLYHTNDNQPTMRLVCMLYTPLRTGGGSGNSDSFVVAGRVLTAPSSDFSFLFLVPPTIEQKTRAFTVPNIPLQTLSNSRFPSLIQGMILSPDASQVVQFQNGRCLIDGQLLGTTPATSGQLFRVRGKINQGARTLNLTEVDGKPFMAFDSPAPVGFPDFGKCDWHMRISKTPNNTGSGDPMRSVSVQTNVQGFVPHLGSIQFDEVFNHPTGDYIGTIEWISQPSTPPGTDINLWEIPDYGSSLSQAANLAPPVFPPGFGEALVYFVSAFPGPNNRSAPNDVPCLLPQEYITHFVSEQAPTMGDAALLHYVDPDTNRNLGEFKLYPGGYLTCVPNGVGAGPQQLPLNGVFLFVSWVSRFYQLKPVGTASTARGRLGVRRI

How the values were obtained:
[1] = target: Norovirus GI.2 major capsid protein VP1 (Norovirus GI.2) (UniProt Q04542); experiment: SEC; Superose 6 Increase 10/300 GL, 50 mM sodium phosphate, 500 mM NaCl, pH 7.0, room temperature; self-assembly into particles; both purified
[2] = target: Norovirus GI.2 major capsid protein VP1 (Norovirus GI.2) (UniProt Q04542); experiment: dynamic light scattering; purified VP1 after anion exchange; ELSZ-2000ZS, room temperature; self-assembly into particles; both purified
[3] = target: Norovirus GI.2 major capsid protein VP1 (Norovirus GI.2) (UniProt Q04542); experiment: negative-stain transmission electron microscopy; purified VP1 on carbon-coated copper grids, 2% uranyl acetate, Tecnai 20; self-assembly into particles; both purified

Measured: binding

Norovirus GI.2 major capsid protein VP1 (from UniProt Q04542 1-546)
binds: all assays above
